Measured values taken from PMC12419896.
Results are given in words; binding and its absence hold for the method and conditions named. In cells and extracts the contact can be indirect.

Target: T1, MEX3B protein (mouse (endogenous in NPCs from CD1 embryos)) (UniProt Q69Z36)
T1 sequence: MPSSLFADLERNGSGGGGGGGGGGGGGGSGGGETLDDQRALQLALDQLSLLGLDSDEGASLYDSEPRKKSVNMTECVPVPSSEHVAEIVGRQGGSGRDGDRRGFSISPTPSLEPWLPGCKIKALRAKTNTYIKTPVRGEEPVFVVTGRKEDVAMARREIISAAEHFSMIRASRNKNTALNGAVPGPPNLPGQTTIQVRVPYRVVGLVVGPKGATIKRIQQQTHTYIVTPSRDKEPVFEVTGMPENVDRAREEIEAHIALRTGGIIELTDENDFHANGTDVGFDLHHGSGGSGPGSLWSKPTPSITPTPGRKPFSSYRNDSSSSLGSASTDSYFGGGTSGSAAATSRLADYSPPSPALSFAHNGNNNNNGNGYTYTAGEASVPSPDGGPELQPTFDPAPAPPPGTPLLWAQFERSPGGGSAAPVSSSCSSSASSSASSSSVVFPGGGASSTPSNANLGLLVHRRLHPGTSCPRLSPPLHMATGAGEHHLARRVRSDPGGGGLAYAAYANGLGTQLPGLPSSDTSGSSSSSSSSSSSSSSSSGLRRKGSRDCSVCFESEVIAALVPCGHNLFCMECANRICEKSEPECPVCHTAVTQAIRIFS
Assay: co-IP; endogenous MEX3B immunoprecipitated with MEX3B antibody and Protein-G agarose from lysate of NPCs grown with or without bFGF for 5 days; 20 mM Tris pH 7.5, 100 mM KCl, 5 mM MgCl2, 0.5% Nonidet P-40, 4°C; washes up to 200 mM KCl; IgG control; western blot for REST

- binding: no binding
B1: REST protein (protein, UniProt Q8VIG1 1-1082)
chain: MATQVMGQSSGGGSLFNNSANMGMALTNDMYDLHELSKAELAAPQLIMLANVALTGEASGSCCDYLVGEERQMAELMPVGDNHFSESEGEGLEESADLKGLENMELGSLELSAVEPQPVFEASAAPEIYSANKDPAPETPVAEDKCRSSKAKPFRCKPCQYEAESEEQFVHHIRIHSAKKFFVEESAEKQAKAWESGSSPAEEGEFSKGPIRCDRCGYNTNRYDHYMAHLKHHLRAGENERIYKCIICTYTTVSEYHWRKHLRNHFPRKVYTCSKCNYFSDRKNNYVQHVRTHTGERPYKCELCPYSSSQKTHLTRHMRTHSGEKPFKCDQCNYVASNQHEVTRHARQVHNGPKPLNCPHCDYKTADRSNFKKHVELHVNPRQFNCPVCDYAASKKCNLQYHFKSKHPTCPSKTMDVSKVKLKKTKKREADLLNNAVSNEKMENEQTKTKGDVSGKKNEKPVKAVGKDASKEKKPGSSVSVVQVTTRTRKSAVAAETKAAEVKHTDGQTGNNPEKPCKAKKNKRKKDAEAHPSEEPVNEGPVTKKKKKSECKSKIGTNVPKGGGRAEERPGVKKQSASLKKGTKKTPPKTKTSKKGGKLAPKGMGQTEPSSGALAQVGVSPDPALIQAEVTGSGSSQTELPSPMDIAKSEPAQMEVSLTGPPPVEPAQMEPSPAKPPQVEAPTYPQPPQRGPAPPTGPAPPTGPAPPTEPAPPTGLAEMEPSPTEPSQKEPPPSMEPPCPEELPQAEPPPMEDCQKELPSPVEPAQIEVAQTAPTQVQEEPPPVSEPPRVKPTKRSSLRKDRAEKELSLLSEMARQEQVLMGVGLVPVRDSKLLKGNKSAQDPPAPPSPSPKGNSREETPKDQEMVSDGEGTIVFPLKKGGPEEAGESPAELAALKESARVSSSEQNSAMPEGGASHSKCQTGSSGLCDVDTEQKTDTVPMKDSAAEPVSPPTPTVDRDAGSPAVVASPPITLAENESQEIDEDEGIHSHDGSDLSDNMSEGSDDSGLHGARPTPPEATSKNGKAGLAGKVTEGEFVCIFCDRSFRKEKDYSKHLNRHLVNVYFLEEAAEEQEEQEEREEQE
